# This is one part of the list.
# Key:
# Assay in all cases: glycan array binding signal (z-score within array); higher = stronger binding
# Details in all cases: glycan notation: IUPAC condensed, linker removed
# [1] = biological target: Fuc(a1-2)Gal6S(b1-3)GlcNAc6S
# Outline: (§1)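 Columns mapping to the same glycan were averaged after glycan names were converted to IUPAC-condensed notation. The data come from 3228 arrays in the Consortium for Functional Glycomics database, limited to those with an available protein sequence. Binding is reported as a within-array Z-score averaged across arrays of one protein sequence and across linkers.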
# [2] = biological target: Fuc(a1-2)Gal6S(b1-4)Glc
# Outline: as §1
# [3] = biological target: Fuc(a1-2)Gal6S(b1-4)Glc6S
# Outline: as §1
# [4] = biological target: Fuc(a1-2)[Gal(a1-3)]Gal
# Outline: as §1
# [5] = biological target: Fuc(a1-2)[Gal(a1-3)]Gal(b1-3)GalNAc
# Outline: as §1
# [6] = biological target: Fuc(a1-2)[Gal(a1-3)]Gal(b1-3)GalNAc(b1-3)Gal(a1-4)Gal(b1-4)Glc
# Outline: as §1
# [7] = biological target: Fuc(a1-2)[Gal(a1-3)]Gal(b1-3)GlcNAc
# Outline: as §1
# [8] = biological target: Fuc(a1-2)[Gal(a1-3)]Gal(b1-3)GlcNAc(b1-2)Man(a1-3)[Fuc(a1-2)[Gal(a1-3)]Gal(b1-3)GlcNAc(b1-2)Man(a1-6)]Man(b1-4)GlcNAc(b1-4)GlcNAc
# Outline: as §1
# [9] = biological target: Fuc(a1-2)[Gal(a1-3)]Gal(b1-3)GlcNAc(b1-2)Man(a1-3)[Fuc(a1-2)[Gal(a1-3)]Gal(b1-3)GlcNAc(b1-2)Man(a1-6)]Man(b1-4)GlcNAc(b1-4)[Fuc(a1-6)]GlcNAc
# Outline: as §1
# [10] = biological target: Fuc(a1-2)[Gal(a1-3)]Gal(b1-3)GlcNAc(b1-3)GalNAc
# Outline: as §1
# [11] = biological target: Fuc(a1-2)[Gal(a1-3)]Gal(b1-3)GlcNAc(b1-6)GalNAc
# Outline: as §1
# [12] = biological target: Fuc(a1-2)[Gal(a1-3)]Gal(b1-4)Glc
# Outline: as §1
# [13] = biological target: Fuc(a1-2)[Gal(a1-3)]Gal(b1-4)GlcNAc
# Outline: as §1
# [14] = biological target: Fuc(a1-2)[Gal(a1-3)]Gal(b1-4)GlcNAc(b1-2)Man
# Outline: as §1
# [15] = biological target: Fuc(a1-2)[Gal(a1-3)]Gal(b1-4)GlcNAc(b1-2)Man(a1-3)[Fuc(a1-2)[Gal(a1-3)]Gal(b1-4)GlcNAc(b1-2)Man(a1-6)]Man(b1-4)GlcNAc(b1-4)GlcNAc
# Outline: as §1
# [16] = biological target: Fuc(a1-2)[Gal(a1-3)]Gal(b1-4)GlcNAc(b1-2)Man(a1-3)[Fuc(a1-2)[Gal(a1-3)]Gal(b1-4)GlcNAc(b1-2)Man(a1-6)]Man(b1-4)GlcNAc(b1-4)[Fuc(a1-6)]GlcNAc
# Outline: as §1
# [17] = biological target: Fuc(a1-2)[Gal(a1-3)]Gal(b1-4)GlcNAc(b1-3)GalNAc
# Outline: as §1
# [18] = biological target: Fuc(a1-2)[Gal(a1-3)]Gal(b1-4)GlcNAc(b1-3)[Fuc(a1-2)[Gal(a1-3)]Gal(b1-4)GlcNAc(b1-6)]GalNAc
# Outline: as §1
# [19] = biological target: Fuc(a1-2)[Gal(a1-3)]Gal(b1-4)GlcNAc(b1-6)GalNAc
# Outline: as §1
# [20] = biological target: Fuc(a1-2)[Gal(a1-3)]Gal(b1-4)[Fuc(a1-3)]Glc
# Outline: as §1
# [21] = biological target: Fuc(a1-2)[Gal(a1-3)]Gal(b1-4)[Fuc(a1-3)]GlcNAc
# Outline: as §1
# [22] = biological target: Fuc(a1-2)[Gal(a1-3)]Gal(b1-4)[Fuc(a1-3)]GlcNAc(b1-3)GalNAc
# Outline: as §1
# [23] = biological target: Fuc(a1-2)[Gal(a1-4)]Gal(b1-4)GlcNAc
# Outline: as §1
# [24] = biological target: Fuc(a1-2)[GalNAc(a1-3)]Gal
# Outline: as §1
# [25] = biological target: Fuc(a1-2)[GalNAc(a1-3)]Gal(b1-3)GalNAc(a1-3)[Fuc(a1-2)]Gal(b1-4)GlcNAc
# Outline: as §1
# [26] = biological target: Fuc(a1-2)[GalNAc(a1-3)]Gal(b1-3)GalNAc(b1-3)Gal(a1-4)Gal(b1-4)Glc
# Outline: as §1
# [27] = biological target: Fuc(a1-2)[GalNAc(a1-3)]Gal(b1-3)GlcNAc
# Outline: as §1
# [28] = biological target: Fuc(a1-2)[GalNAc(a1-3)]Gal(b1-3)GlcNAc(b1-2)Man(a1-3)[Fuc(a1-2)[GalNAc(a1-3)]Gal(b1-3)GlcNAc(b1-2)Man(a1-6)]Man(b1-4)GlcNAc(b1-4)GlcNAc
# Outline: as §1
# [29] = biological target: Fuc(a1-2)[GalNAc(a1-3)]Gal(b1-3)GlcNAc(b1-2)Man(a1-3)[Fuc(a1-2)[GalNAc(a1-3)]Gal(b1-3)GlcNAc(b1-2)Man(a1-6)]Man(b1-4)GlcNAc(b1-4)[Fuc(a1-6)]GlcNAc
# Outline: as §1
# [30] = biological target: Fuc(a1-2)[GalNAc(a1-3)]Gal(b1-3)GlcNAc(b1-3)GalNAc
# Outline: as §1
# [31] = biological target: Fuc(a1-2)[GalNAc(a1-3)]Gal(b1-3)GlcNAc(b1-6)GalNAc
# Outline: as §1
# [32] = biological target: Fuc(a1-2)[GalNAc(a1-3)]Gal(b1-4)Glc
# Outline: as §1
# [33] = biological target: Fuc(a1-2)[GalNAc(a1-3)]Gal(b1-4)GlcNAc
# Outline: as §1
# [34] = biological target: Fuc(a1-2)[GalNAc(a1-3)]Gal(b1-4)GlcNAc(b1-2)Man
# Outline: as §1
# [35] = biological target: Fuc(a1-2)[GalNAc(a1-3)]Gal(b1-4)GlcNAc(b1-2)Man(a1-3)[Fuc(a1-2)[GalNAc(a1-3)]Gal(b1-4)GlcNAc(b1-2)Man(a1-6)]Man(b1-4)GlcNAc(b1-4)GlcNAc
# Outline: as §1
# [36] = biological target: Fuc(a1-2)[GalNAc(a1-3)]Gal(b1-4)GlcNAc(b1-2)Man(a1-3)[Fuc(a1-2)[GalNAc(a1-3)]Gal(b1-4)GlcNAc(b1-2)Man(a1-6)]Man(b1-4)GlcNAc(b1-4)[Fuc(a1-6)]GlcNAc
# Outline: as §1
# [37] = biological target: Fuc(a1-2)[GalNAc(a1-3)]Gal(b1-4)GlcNAc(b1-3)Gal(b1-4)GlcNAc
# Outline: as §1
# [38] = biological target: Fuc(a1-2)[GalNAc(a1-3)]Gal(b1-4)GlcNAc(b1-3)Gal(b1-4)GlcNAc(b1-3)Gal(b1-4)GlcNAc
# Outline: as §1
# [39] = biological target: Fuc(a1-2)[GalNAc(a1-3)]Gal(b1-4)GlcNAc(b1-3)GalNAc
# Outline: as §1
# [40] = biological target: Fuc(a1-2)[GalNAc(a1-3)]Gal(b1-4)GlcNAc(b1-3)[Fuc(a1-2)[GalNAc(a1-3)]Gal(b1-4)GlcNAc(b1-6)]GalNAc
# Outline: as §1
# [41] = biological target: Fuc(a1-2)[GalNAc(a1-3)]Gal(b1-4)GlcNAc(b1-6)GalNAc
# Outline: as §1
# [42] = biological target: Fuc(a1-2)[GalNAc(a1-3)]Gal(b1-4)[Fuc(a1-3)]GlcNAc
# Outline: as §1
# [43] = biological target: Fuc(a1-2)[GalNAc(a1-3)]Gal(b1-4)[Fuc(a1-3)]GlcNAc(b1-3)GalNAc
# Outline: as §1
# [44] = biological target: Fuc(a1-2)[GalNAc(a1-4)]Gal(b1-4)GlcNAc
# Outline: as §1
# [45] = biological target: Fuc(a1-2)[GalNAc(b1-3)]Gal
# Outline: as §1
binder,measurement,setting,value
Mermaid2 (Stilbonema majum) (protein) MGSSHHHHHHSSGLVPRGSHMAASGWLRSPQGTVVKLYRRSLSWSKADEFCKDVDGRLVVDRTADMHLFLIKNVLKEKKSRVWVGLRRTAPHSRTWIWSDGTRQNEDDLNTNLWLRDEPNDAAGEEECALFMYSPWEKAWGLNDYLCRGGCRSYQFICEKGIR,glycan array binding signal (z-score),[1],4.48
same,glycan array binding signal (z-score),[2],-0.715
same,glycan array binding signal (z-score),[3],-0.424
same,glycan array binding signal (z-score),[4],-0.319
same,glycan array binding signal (z-score),[5],0.737
same,glycan array binding signal (z-score),[6],-0.308
same,glycan array binding signal (z-score),[7],-0.651
same,glycan array binding signal (z-score),[8],-0.483
same,glycan array binding signal (z-score),[9],0.121
same,glycan array binding signal (z-score),[10],-0.082
same,glycan array binding signal (z-score),[11],-0.026
same,glycan array binding signal (z-score),[12],-0.23
same,glycan array binding signal (z-score),[13],-0.824
same,glycan array binding signal (z-score),[14],-0.059
same,glycan array binding signal (z-score),[15],-0.458
same,glycan array binding signal (z-score),[16],-0.468
same,glycan array binding signal (z-score),[17],-0.602
same,glycan array binding signal (z-score),[18],-0.477
same,glycan array binding signal (z-score),[19],0.562
same,glycan array binding signal (z-score),[20],-0.396
same,glycan array binding signal (z-score),[21],-0.315
same,glycan array binding signal (z-score),[22],-0.328
same,glycan array binding signal (z-score),[23],2.44
same,glycan array binding signal (z-score),[24],-0.395
same,glycan array binding signal (z-score),[25],-0.693
same,glycan array binding signal (z-score),[26],-0.024
same,glycan array binding signal (z-score),[27],-0.292
same,glycan array binding signal (z-score),[28],-1.07
same,glycan array binding signal (z-score),[29],-0.504
same,glycan array binding signal (z-score),[30],0.751
same,glycan array binding signal (z-score),[31],-0.709
same,glycan array binding signal (z-score),[32],-0.627
same,glycan array binding signal (z-score),[33],-0.408
same,glycan array binding signal (z-score),[34],-0.465
same,glycan array binding signal (z-score),[35],-0.516
same,glycan array binding signal (z-score),[36],0.066
same,glycan array binding signal (z-score),[37],-0.302
same,glycan array binding signal (z-score),[38],-0.257
same,glycan array binding signal (z-score),[39],-0.433
same,glycan array binding signal (z-score),[40],0.024
same,glycan array binding signal (z-score),[41],-0.72
same,glycan array binding signal (z-score),[42],0.262
same,glycan array binding signal (z-score),[43],-0.713
same,glycan array binding signal (z-score),[44],0.06
same,glycan array binding signal (z-score),[45],-0.551

# Part of the list above in a different format.
binder	measurement	setting	value
Mermaid2 (Stilbonema majum) (protein) MGSSHHHHHHSSGLVPRGSHMAASGWLRSPQGTVVKLYRRSLSWSKADEFCKDVDGRLVVDRTADMHLFLIKNVLKEKKSRVWVGLRRTAPHSRTWIWSDGTRQNEDDLNTNLWLRDEPNDAAGEEECALFMYSPWEKAWGLNDYLCRGGCRSYQFICEKGIR	glycan array binding signal (z-score)	[42]	0.262
same	glycan array binding signal (z-score)	[43]	-0.713
same	glycan array binding signal (z-score)	[44]	0.06

# Source: the supplement of paper PMC8728848
